The list shows a part of the results.
The sequences below were run against T1, OsSMF1 (Oryza sativa, UniProt Q6ZLB0 1-436) (assay: protein-binding microarray (RPBM); PBS, 2% BSA, 51.3 ng/ul salmon testes DNA, 50 uM zinc acetate, 200 nM TF, 25 C, 1 h; high values mean tight binding). Conditions: protein: recombinant; tags: N-terminal polyhistidine and DsRed monomer fusion (pET32a); chain copies: 2; label: CyDye5-dUTP incorporated in the synthesized complementary strand; 3' TTTTT single-stranded linker to array surface; dsDNA, one strand shown.
T1 sequence: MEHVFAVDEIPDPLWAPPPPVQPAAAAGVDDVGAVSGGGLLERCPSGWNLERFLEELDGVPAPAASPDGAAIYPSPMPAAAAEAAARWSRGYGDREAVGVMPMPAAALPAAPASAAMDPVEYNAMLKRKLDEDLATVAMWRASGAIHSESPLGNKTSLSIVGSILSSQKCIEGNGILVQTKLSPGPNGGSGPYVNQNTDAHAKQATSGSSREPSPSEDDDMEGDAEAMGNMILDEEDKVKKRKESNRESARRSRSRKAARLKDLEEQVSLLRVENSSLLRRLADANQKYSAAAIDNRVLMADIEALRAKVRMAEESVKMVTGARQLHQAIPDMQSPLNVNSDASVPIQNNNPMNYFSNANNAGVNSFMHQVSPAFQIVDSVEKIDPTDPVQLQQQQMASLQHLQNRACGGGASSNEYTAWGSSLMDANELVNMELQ
In short: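 Ni–NTA purification followed expression in E. coli BL21-CodonPlus of transcription factors fused N-terminally to a polyhistidine tag and DsRed. At 200 nM in PBS with 2% BSA, salmon testes DNA and 50 µM zinc acetate, the protein was incubated for 1 h at 25 °C with a custom Agilent array that had been primer-extended with Cy5-dUTP and blocked with 2% BSA. After washing, the array was read on an Axon 4000B scanner. The binding signal is per-feature fluorescence intensity in arbitrary units.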
In the case of “GGTGCTCACGCGTTGCTTTGTCCCGCGCTGCCACCTCCTCCGGAGTCACCTAGTGCAG”, the binding signal is reported as 3350 fluorescence intensity (a.u.).
“AGTGAAAGCATTGAACTACCAGTTGCGTCAGGAAATGTATCGGAGTCACCTAGTGCAG” was tested, and the binding signal was 4160 fluorescence intensity (a.u.).
“TTCGCCATGATCACAGCCACGTACACAACAAACGCGGCCTCGGAGTCACCTAGTGCAG” was tested, and the binding signal was 5800 fluorescence intensity (a.u.).
With “CGCGACTTGTCGCATTTGAACGTGTCGAGTCACAATTGTGCGGAGTCACCTAGTGCAG” the binding signal was 32600 fluorescence intensity (a.u.).
“CGTCGTAGTCGCGGCGGGCGCGGGAGGTGGTCTCCGGCGGCGGAGTCACCTAGTGCAG” was tested, and the binding signal was 24400 fluorescence intensity (a.u.).
In the case of “ACAGCAAACAAACGTAACACCTTAACACGTCATGCAGTTTCGGAGTCACCTAGTGCAG”, the binding signal is reported as 15100 fluorescence intensity (a.u.).
With “GACAGGCTCAGTGTCACATCCCTCTAAAATCTGTTATATTCGGAGTCACCTAGTGCAG” the binding signal was 3340 fluorescence intensity (a.u.).
For “GTGAGTTCATCATATGGCGTGTTACGTGTACATGTGTCTACGGAGTCACCTAGTGCAG”, the binding signal was 6410 fluorescence intensity (a.u.).
For “CCTCTCTCATTATCCTCTCGCGCTCGAGTGTGTGTGGCGACGGAGTCACCTAGTGCAG”, the binding signal was 3260 fluorescence intensity (a.u.).
In the case of “CAAGTAGTACAAAAGATTACCGTGGCGTTAGCACGGGCATCGGAGTCACCTAGTGCAG”, the binding signal is reported as 3660 fluorescence intensity (a.u.).
In the case of “ACACTAGTAACAAAACTTGGCAATTTGGCATTTGGCATTTCGGAGTCACCTAGTGCAG”, the binding signal is reported as 3300 fluorescence intensity (a.u.).
For “GTTTATTTGGGCCTGATTGGCACAGATGGTAGTGCCATGTCGGAGTCACCTAGTGCAG”, the binding signal was 3500 fluorescence intensity (a.u.).
“AGGTACGTAAATTTTATATATTCCATATGAGCTCTAAATACGGAGTCACCTAGTGCAG” was tested, and the binding signal was 3580 fluorescence intensity (a.u.).
For “ACCACAAGGCGTGAGCGAGTGACACGTGGCGCGTTGCATCCGGAGTCACCTAGTGCAG”, the binding signal was 28400 fluorescence intensity (a.u.).
In the case of “GGTTCCAATTCGTCGCCTGATACTCCGATTCGAGTTCTTGCGGAGTCACCTAGTGCAG”, the binding signal is reported as 3240 fluorescence intensity (a.u.).
In the case of “CCTCATGACATACCTCCAACACTTACAGATATAGAATATTCGGAGTCACCTAGTGCAG”, the binding signal is reported as 3180 fluorescence intensity (a.u.).
In the case of “CCAATCCGTTTATTTACACGAGAACGTACGTACGCGCGCTCGGAGTCACCTAGTGCAG”, the binding signal is reported as 3240 fluorescence intensity (a.u.).
For “TTAAATGAATCATTTTGTTCCTATTTCTAAAATAAACTATCGGAGTCACCTAGTGCAG”, the binding signal was 3380 fluorescence intensity (a.u.).
In the case of “AGTTAAGGGACCTCCGATGAACTTATTCCTTAGAAACTTGCGGAGTCACCTAGTGCAG”, the binding signal is reported as 34200 fluorescence intensity (a.u.).
For “ATATCCATATCAAATTAAGCCAGGTTTGTAATTAATAACTCGGAGTCACCTAGTGCAG”, the binding signal was 9630 fluorescence intensity (a.u.).
With “CCGGCCGGGCGGTCGCTGTTGCTGACTTGACCAGAGACGACGGAGTCACCTAGTGCAG” the binding signal was 3580 fluorescence intensity (a.u.).
For “ATCTTCTTCCCTTCTCTCCAGTCGACCCTCTCTCCATCTTCGGAGTCACCTAGTGCAG”, the binding signal was 20300 fluorescence intensity (a.u.).
“TCTGTAGAGCAGTATGAGCTAGCCAAGAGAGTTGCACATACGGAGTCACCTAGTGCAG” was tested, and the binding signal was 8680 fluorescence intensity (a.u.).
For “CGACTCAAAGATAAATGATATGTCATCGGCACCTAGCCGACGGAGTCACCTAGTGCAG”, the binding signal was 4200 fluorescence intensity (a.u.).
“AAGTTCAAGCAAGGCACCAAACCGTTGAAAGGAACTGATGCGGAGTCACCTAGTGCAG” was tested, and the binding signal was 6230 fluorescence intensity (a.u.).
In the case of “GGCAGCTTCATATTCCTCGTCACGGCGAACCCGTCGCCGCCGGAGTCACCTAGTGCAG”, the binding signal is reported as 4520 fluorescence intensity (a.u.).
In the case of “GTGGTCGTGACGTTGTCGACATGACGTACAATCAAGGACGCGGAGTCACCTAGTGCAG”, the binding signal is reported as 6700 fluorescence intensity (a.u.).
For “TTGCCCCTGCTGTTTCGAATGCTTGTCCAAGTCATGTGGACGGAGTCACCTAGTGCAG”, the binding signal was 3860 fluorescence intensity (a.u.).
“CTCGTCCCACGCGGCGACCAGCACCGACGTGGCGTGCGTGCGGAGTCACCTAGTGCAG” was tested, and the binding signal was 17200 fluorescence intensity (a.u.).
In the case of “AATCGTGTCCATGGTCTCCACCTCACGGGAGATTCTCCGCCGGAGTCACCTAGTGCAG”, the binding signal is reported as 3830 fluorescence intensity (a.u.).
For “CGTACCTAGCTTATAATATTGGTGATTCATATGCTGGCCCCGGAGTCACCTAGTGCAG”, the binding signal was 3560 fluorescence intensity (a.u.).
“AGATACTGCTGACCAATATAGATACCCTGATGTCCCATCCCGGAGTCACCTAGTGCAG” was tested, and the binding signal was 4410 fluorescence intensity (a.u.).
In the case of “GTCTGACCGACATGCAGTGGCCCACATGTCTGTCATACATCGGAGTCACCTAGTGCAG”, the binding signal is reported as 4270 fluorescence intensity (a.u.).
For “ACCATGTTGTAATGGCATGACGCCAATCGATATATACTTGCGGAGTCACCTAGTGCAG”, the binding signal was 3910 fluorescence intensity (a.u.).
“ATTGCTTCAAACCAGAACGGTTTTGATTCTATGTGGCATACGGAGTCACCTAGTGCAG” was tested, and the binding signal was 14800 fluorescence intensity (a.u.).
For “CTGGCCATCCACGTGTCCCAGCGTGGCTGCTCTTCCACCACGGAGTCACCTAGTGCAG”, the binding signal was 14800 fluorescence intensity (a.u.).
With “ATACATAGTTCCACCATGTCATCTAAATTCTAAACTCCTTCGGAGTCACCTAGTGCAG” the binding signal was 3170 fluorescence intensity (a.u.).
For “TAGAAAGTAGTATTTAGCAATAGCTTAGTGCATTGGCTTTCGGAGTCACCTAGTGCAG”, the binding signal was 20900 fluorescence intensity (a.u.).
With “TTTCCAATCACGTATTCCGGACAAAGGCCTAAACCTGCTCCGGAGTCACCTAGTGCAG” the binding signal was 35800 fluorescence intensity (a.u.).
With “TATGATGATGACATATGGTTGTATGGTCTTTGCTGTGACGCGGAGTCACCTAGTGCAG” the binding signal was 5470 fluorescence intensity (a.u.).
“AAAAGATGTGCACTAGTTGACGAAAGACAAAAGAAGGAGTCGGAGTCACCTAGTGCAG” was tested, and the binding signal was 3200 fluorescence intensity (a.u.).
For “GCTAGCTATTGTTGATTTGTCGTGTTGTAATATATACACTCGGAGTCACCTAGTGCAG”, the binding signal was 4680 fluorescence intensity (a.u.).
